According to publication doi:10.1101/2025.01.13.632772:
No constants are given. Whether binding was seen depends on the method and setting. Binding seen in cells or lysates may run through a third protein.

Chains of the proteins cited; added tags and fusions are not shown.
UniProt P25106: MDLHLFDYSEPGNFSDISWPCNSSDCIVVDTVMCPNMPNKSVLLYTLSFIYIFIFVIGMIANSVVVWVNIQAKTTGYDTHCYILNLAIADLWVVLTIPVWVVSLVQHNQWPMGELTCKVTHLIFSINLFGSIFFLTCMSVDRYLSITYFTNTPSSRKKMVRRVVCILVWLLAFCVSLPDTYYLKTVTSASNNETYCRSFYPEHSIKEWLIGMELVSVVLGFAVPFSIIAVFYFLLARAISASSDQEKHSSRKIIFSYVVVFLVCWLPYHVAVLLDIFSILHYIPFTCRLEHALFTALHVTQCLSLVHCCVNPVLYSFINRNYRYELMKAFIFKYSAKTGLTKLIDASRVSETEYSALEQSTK
UniProt P20309: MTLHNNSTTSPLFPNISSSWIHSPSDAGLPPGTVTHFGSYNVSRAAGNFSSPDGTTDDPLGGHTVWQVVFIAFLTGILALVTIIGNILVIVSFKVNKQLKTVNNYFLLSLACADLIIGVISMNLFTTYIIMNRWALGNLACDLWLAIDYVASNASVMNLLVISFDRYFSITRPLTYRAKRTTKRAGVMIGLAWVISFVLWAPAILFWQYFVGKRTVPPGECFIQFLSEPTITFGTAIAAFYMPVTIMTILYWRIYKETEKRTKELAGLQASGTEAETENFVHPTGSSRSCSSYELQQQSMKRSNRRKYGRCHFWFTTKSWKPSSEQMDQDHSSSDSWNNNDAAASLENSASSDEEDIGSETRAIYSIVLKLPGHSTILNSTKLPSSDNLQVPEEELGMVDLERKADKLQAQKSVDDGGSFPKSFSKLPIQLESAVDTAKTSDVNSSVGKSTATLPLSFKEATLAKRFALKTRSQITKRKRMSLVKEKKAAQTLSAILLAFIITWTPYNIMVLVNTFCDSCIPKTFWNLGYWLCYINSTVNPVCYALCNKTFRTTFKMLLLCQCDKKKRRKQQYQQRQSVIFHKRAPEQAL

Target: CXCR7 (human (endogenous in primary infant ASMCs)) (UniProt P25106)
Assay: co-IP

“muscarinic acetylcholine receptor 3 (from UniProt P20309 1-590)” was tested, and the binding was “no binding”.
